Results taken from US20090098142A1.
Results are given in words; binding and its absence hold for the method and conditions named. Some entries that bind do so weakly or less than the wild type. One block for each binder: values may come before it.

Amino acid sequences for entries named in this document (tags omitted). A change or cut given only in a name is not applied to a line headed by its entry.
UniProt P35225: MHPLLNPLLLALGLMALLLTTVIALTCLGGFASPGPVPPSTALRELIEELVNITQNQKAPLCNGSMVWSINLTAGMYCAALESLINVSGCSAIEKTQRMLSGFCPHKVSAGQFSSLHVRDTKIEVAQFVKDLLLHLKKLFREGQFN

How the values were obtained:
[1] = molecular target: recombinant human R110Q IL-13 (human) (UniProt P35225); assay: ELISA for the complex in BAL and serum
[2] = molecular target: recombinant human R110Q IL-13 (human) (UniProt P35225); assay: ELISA for the complex: mAb13.2 capture, anti-human IgG (Fc specific) detection
[3] = molecular target: cynomolgus monkey IL-13 (NHP IL-13) (cynomolgus monkey); assay: direct NHP IL-13 binding ELISA
[4] = molecular target: recombinant human R110Q IL-13 (human) (UniProt P35225); assay: sandwich ELISA for human IL-13 in BAL and serum of mice given R110Q IL-13, detector antibody

binding [1]: binds
binding [2]: binds
B1: humanized MJ 2-7 V2.11 IgG1 with a mutated CH2 domain (antibody, V domains shown)
VH: EVQLVESGGGLVQPGGSLRLSCAASGFNIKDTYIHWVRQAPGKGLEWIGRIDPANDNIKYDPKFQGRFTISADNAKNSAYLQMNSLRAEDTAVYYCARSEENWYDFFDYWGQGTLVTVSS
VL: DIQMTQSPSSLSASVGDRVTITCRSSQSIVHSNGNTYLEWYQQKPGKAPKLLIYKVSNRFSGVPSRFSGSGSGTDFTLTISSLQPEDFATYYCFQGSHIPYTFGGGTKVEIKR

binding [3]: binds
B2: humanized MJ 2-7 V4 (hMJ 2-7 VH V1 with hMJ 2-7 VL V4) (antibody, V domains shown)
VH: QVQLVQSGAEVKKPGASVKVSCKASGFNIKDTYIHWVRQAPGQRLEWMGRIDPANDNIKYDPKFQGRVTITRDTSASTAYMELSSLRSEDTAVYYCARSEENWYDFFDYWGQGTLVTVSS
VL: DVVMTQSPLSLPVTPGEPASISCRSSQSIVHSNGNTYLEWYLQKPGQSPQLLIYKVSNRFSGVPDRFSGSGSGTDFTLKISRVEAEDVGVYYCFQSSHVPLTFGQGTKLEIK

binding [4]: binds
B3: mouse monoclonal antibody C65 (antibody, V domains shown)
VH: QVQLKESGPGLVAPSQSLSITCTVSGFSLTGYGVNWVRQPPGKGLEWLGIIWGDGSTDYNSALKSRLIINKDNSKSQVFLKMNSLQTDDTARYFCARDKTFYYDGFYRGRMDYWGQGTSVTVSS
VL: DVQMIQSPSSLSASLGDIVTMTCQASQGTSINLNWFQQKPGKAPKLLIFGASNLEDGVPSRFSGSRYGTNFTLTISSLEDEDMATYFCLQHSYLPWTFGGGTKLEIK
